Test results from US20250313807A1, “SYSTEMS AND METHODS FOR CHARACTERIZATION OF POLYCYSTIC KIDNEY DISEASE” (University of Washington, priority 2022, published 2025).
At least one structure is not confirmed: it was looked up by name or label, or the drawing left a doubt.

Tested on: PKD organoid cysts
Experiment: cyst expansion in PKD organoids under static conditions (96-well plate)
Assay type: cell-based, human

O=C(CCc1ccc(O)cc1)c1c(O)cc(O)cc1O[C@@H]1O[C@H](CO)[C@@H](O)[C@H](O)[C@H]1O [phloridzin]
net shrinkage of cysts: not observed
effect on cyst growth (15 mM D-Glucose, non-toxic doses): reduced cyst growth to baseline
